Test results from the supplement of paper PMC4604168 (melanoma cell lines).
This is one part of the list. Many values rest on one well or one pass, so single values are uncertain.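 Imaging used 1,536-well plates; nuclei positive for cleaved PARP by antibody were divided by total DNA-stained nuclei to yield the apoptosis fraction. Doses for screening kept most cells viable, and cell lines differ markedly in resting and induced cleaved-PARP levels.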

Columns and labels:
Assay in all cases: cleaved PARP positive nuclei fraction relative to DMSO control; melanoma cells; higher = more apoptosis
Conditions in all cases: library dose: low library concentration; 72 h
MZ2-MEL = system: MZ2-MEL
MeWo = system: MeWo
RPMI7951 = system: RPMI7951
RVH-421 = system: RVH-421
SkMel28 = system: SkMel28
SkMel2 = system: SkMel2
SkMel30 = system: SkMel30
SkMel5 = system: SkMel5
UACC257 = system: UACC257
UACC62 = system: UACC62

Row | Compound | cleaved PARP positive nuclei fraction (MZ2-MEL) | cleaved PARP positive nuclei fraction (MeWo) | cleaved PARP positive nuclei fraction (RPMI7951) | cleaved PARP positive nuclei fraction (RVH-421) | cleaved PARP positive nuclei fraction (SkMel28) | cleaved PARP positive nuclei fraction (SkMel2) | cleaved PARP positive nuclei fraction (SkMel30) | cleaved PARP positive nuclei fraction (SkMel5) | cleaved PARP positive nuclei fraction (UACC257) | cleaved PARP positive nuclei fraction (UACC62)
1 | CN(c1ncccc1CNc1nc(Nc2ccc3c(c2)CC(=O)N3)ncc1C(F)(F)F)S(C)(=O)=O + Cc1cc(N2CCOCC2)cc2[nH]c(-c3c(NC[C@@H](O)c4cccc(Cl)c4)cc[nH]c3=O)nc12 [BMS536924] (first compound 0.08 µM, partner dose 0.2 µM) | 264% | 240% | 170% | 118% | 54% | 186% | 71.5% | 72.7% | 44.7% | 108%
2 | NC(=O)c1ccc(N(C(N)=O)c2c(F)cccc2F)nc1-c1ccc(F)cc1F + N#Cc1c(O)c2c(-c3ccc(-c4ccccc4O)cc3)csc2[nH]c1=O [A769662] (first compound 0.4 µM, partner dose 2 µM) | 28.5% | 50.1% | 88.4% | 120% | 56.7% | 126% | 108% | 65.9% | 23% | 90.7%
3 | C[C@@H](N)c1ccc(C(=O)Nc2ccnc3[nH]ccc23)cc1 + COc1ccc2c(c1)CCC1C2CCC2(C)C(NCCCCCCN3C(=O)C=CC3=O)CCC12 [U73122] (first compound 0.4 µM, partner dose 0.4 µM) | 90.2% | 126% | 34.5% | 130% | 109% | 107% | 31.1% | 77.6% | 162% | 176%
4 | NC(=O)c1ccc(N(C(N)=O)c2c(F)cccc2F)nc1-c1ccc(F)cc1F + O=C1NC(=O)/C(=C/c2ccc(-c3ccc(F)cc3O)o2)S1 [AS252424] (first compound 0.4 µM, partner dose 1 µM) | 64.5% | 65.4% | 94.3% | 70.1% | 131% | 111% | 84.3% | 160% | 235% | 144%
5 | CC(=O)O[C@@]12CO[C@@H]1C[C@H](O)[C@@]1(C)C(=O)[C@H](O)C3=C(C)[C@@H](OC(=O)[C@H](O)[C@@H](NC(=O)OC(C)(C)C)c4ccccc4)C[C@@](O)([C@@H](OC(=O)c4ccccc4)[C@H]21)C3(C)C [Docetaxel] + CCCCCCCCCCCC1=C(O)C(=O)C=C(O)C1=O [Embelin] (first compound 0.0001 µM, partner dose 1.2 µM) | 288% | 410% | 385% | 125% | 631% | 542% | 210% | 191% | 480% | 456%
6 | CCN(CC)CCNC(=O)c1c(C)[nH]c(/C=C2\C(=O)Nc3ccc(F)cc32)c1C [sunitinib] + O=c1cc(-c2cccc3c2Sc2ccccc2S3)oc(N2CCOCC2)c1 [KU55933] (first compound 0.4 µM, partner dose 1 µM) | 148% | 128% | 98.9% | 144% | 274% | 67.3% | 61.6% | 74.8% | 130% | 104%
7 | C[C@]1(O)C[C@@H](c2nc(-c3ccc4ccc(-c5ccccc5)nc4c3)c3c(N)nccn32)C1 + OCCn1cc(-c2cnc3nnn(Cc4ccc5ncccc5c4)c3n2)cn1 [PF04217903] (first compound 0.4 µM, partner dose 1 µM) | 133% | 45% | 131% | 33.6% | 121% | 85.4% | 85.3% | 36.6% | 39.2% | 193%
8 | NC(=O)c1ccc(N(C(N)=O)c2c(F)cccc2F)nc1-c1ccc(F)cc1F + Nc1ccn([C@@H]2O[C@H](CO)[C@@H](O)C2(F)F)c(=O)n1 [gemcitabine] (first compound 0.4 µM, partner dose 0.0004 µM) | 110% | 64.8% | 73.9% | 61.4% | 80.6% | 39.3% | 31.9% | 51% | 51% | 94%
9 | COc1ccc(C2=N[C@@H](c3ccc(Cl)cc3)[C@@H](c3ccc(Cl)cc3)N2C(=O)N2CCNC(=O)C2)c(OC(C)C)c1 [Nutlin-3] + COc1ccc(COc2ccc(Cc3cnc(N)nc3N)cc2OC)cc1 [GW2580] (first compound 0.1 µM, partner dose 1 µM) | 101% | 84.8% | 41.7% | 131% | 101% | 127% | 33.8% | 166% | 276% | 63%
10 | Cn1sc(=O)n(Cc2ccccc2)c1=O + CO[C@@H]1[C@H](N(C)C(=O)c2ccccc2)C[C@H]2O[C@]1(C)n1c3ccccc3c3c4c(c5c6ccccc6n2c5c31)C(=O)NC4 [Midostaurin] (first compound 0.4 µM, partner dose 0.08 µM) | 37.7% | 448% | 74.6% | 73.8% | 78.8% | 124% | 63.6% | 102% | 134% | 74.5%
11 | CC1(C)CCC(c2ccc(Cl)cc2)=C(CN2CCN(c3ccc(C(=O)NS(=O)(=O)c4ccc(N[C@H](CCN5CCOCC5)CSc5ccccc5)c(S(=O)(=O)C(F)(F)F)c4)cc3)CC2)C1 + C[C@@H]1CCN(C(=O)CC#N)C[C@@H]1N(C)c1ncnc2[nH]ccc12 [CP690550] (first compound 0.4 µM, partner dose 1 µM) | 104% | 471% | 137% | 111% | 56.9% | 115% | 97.3% | 188% | 201% | 43.6%

An excerpt of these results, tab-delimited:
Row	Compound	cleaved PARP positive nuclei fraction (MZ2-MEL)	cleaved PARP positive nuclei fraction (MeWo)	cleaved PARP positive nuclei fraction (RPMI7951)	cleaved PARP positive nuclei fraction (RVH-421)	cleaved PARP positive nuclei fraction (SkMel28)	cleaved PARP positive nuclei fraction (SkMel2)	cleaved PARP positive nuclei fraction (SkMel30)	cleaved PARP positive nuclei fraction (SkMel5)	cleaved PARP positive nuclei fraction (UACC257)	cleaved PARP positive nuclei fraction (UACC62)
8	NC(=O)c1ccc(N(C(N)=O)c2c(F)cccc2F)nc1-c1ccc(F)cc1F + Nc1ccn([C@@H]2O[C@H](CO)[C@@H](O)C2(F)F)c(=O)n1 [gemcitabine] (first compound 0.4 µM, partner dose 0.0004 µM)	110%	64.8%	73.9%	61.4%	80.6%	39.3%	31.9%	51%	51%	94%
9	COc1ccc(C2=N[C@@H](c3ccc(Cl)cc3)[C@@H](c3ccc(Cl)cc3)N2C(=O)N2CCNC(=O)C2)c(OC(C)C)c1 [Nutlin-3] + COc1ccc(COc2ccc(Cc3cnc(N)nc3N)cc2OC)cc1 [GW2580] (first compound 0.1 µM, partner dose 1 µM)	101%	84.8%	41.7%	131%	101%	127%	33.8%	166%	276%	63%
